Test results from US20050013818A1.
Results are given in words; binding and its absence hold for the method and conditions named. Some results given as binding are weak or reduced against the parent protein; the word gives no strength.

Key:
[1] = biological target: T1, NF-κB1 p50 (mouse), P25799; experiment: EMSA of nuclear extracts of RANKL-stimulated primary wt mammary epithelial cells; details: remark: other sources report otherwise
T1 chain: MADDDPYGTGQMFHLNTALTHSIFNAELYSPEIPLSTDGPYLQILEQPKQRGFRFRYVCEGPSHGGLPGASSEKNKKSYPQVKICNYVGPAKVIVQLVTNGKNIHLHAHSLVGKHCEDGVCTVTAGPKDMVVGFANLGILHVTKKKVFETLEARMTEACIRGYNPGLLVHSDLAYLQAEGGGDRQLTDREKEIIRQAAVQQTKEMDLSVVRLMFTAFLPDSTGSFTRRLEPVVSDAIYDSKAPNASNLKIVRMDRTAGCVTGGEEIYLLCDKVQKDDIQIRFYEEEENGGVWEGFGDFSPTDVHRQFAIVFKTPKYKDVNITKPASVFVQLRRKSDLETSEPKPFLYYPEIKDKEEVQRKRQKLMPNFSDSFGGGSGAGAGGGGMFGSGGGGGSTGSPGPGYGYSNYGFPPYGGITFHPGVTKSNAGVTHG

[2] = biological target: T1, NF-κB1 p50 (mouse), P25799; experiment: gel mobility shift assay of mammary gland whole cell extracts; composition of the NF-κB complexes; details: remark: other sources report otherwise

B1: RelA (p65), Q04207 1-549 (protein, mouse, UniProt Q04207 1-549, looked up)
chain: MDDLFPLIFPSEPAQASGPYVEIIEQPKQRGMRFRYKCEGRSAGSIPGERSTDTTKTHPTIKINGYTGPGTVRISLVTKDPPHRPHPHELVGKDCRDGYYEADLCPDRSIHSFQNLGIQCVKKRDLEQAISQRIQTNNNPFHVPIEEQRGDYDLNAVRLCFQVTVRDPAGRPLLLTPVLSHPIFDNRAPNTAELKICRVNRNSGSCLGGDEIFLLCDKVQKEDIEVYFTGPGWEARGSFSQADVHRQVAIVFRTPPYADPSLQAPVRVSMQLRRPSDRELSEPMEFQYLPDTDDRHRIEEKRKRTYETFKSIMKKSPFNGPTEPRPPTRRIAVPTRNSTSVPKPAPQPYTFPASLSTINFDEFSPMLLPSGQISNQALALAPSSAPVLAQTMVPSSAMVPLAQPPAPAPVLTPGPPQSLSAPVPKSTQAGEGTLSEALLHLQFDADEDLGALLGNSTDPGVFTDLASVDNSEFQQLLNQGVSMSHSTAEPMLMEYPEAITRLVTGSQRPPDPAPTPLGTSGLPNGLSGDEDFSSIADMDFSALLSQISS
B1 was tested, and the binding [1] was “binds” and the binding [2] was “binds”.
